# Test results taken from paper PMC5996148.
# Sequences of proteins named here, by UniProt entry; tags and fusion partners are left off.
# UniProt O75821, whole entry: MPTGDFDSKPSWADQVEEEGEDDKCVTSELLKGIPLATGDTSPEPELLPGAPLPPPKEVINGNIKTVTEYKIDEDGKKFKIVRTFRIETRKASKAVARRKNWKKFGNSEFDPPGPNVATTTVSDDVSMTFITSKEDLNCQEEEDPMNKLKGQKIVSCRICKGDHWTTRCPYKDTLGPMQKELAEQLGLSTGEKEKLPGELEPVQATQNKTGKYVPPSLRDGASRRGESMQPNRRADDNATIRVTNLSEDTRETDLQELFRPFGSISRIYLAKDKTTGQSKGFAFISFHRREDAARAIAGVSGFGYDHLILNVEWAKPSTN
# UniProt P60228, whole entry: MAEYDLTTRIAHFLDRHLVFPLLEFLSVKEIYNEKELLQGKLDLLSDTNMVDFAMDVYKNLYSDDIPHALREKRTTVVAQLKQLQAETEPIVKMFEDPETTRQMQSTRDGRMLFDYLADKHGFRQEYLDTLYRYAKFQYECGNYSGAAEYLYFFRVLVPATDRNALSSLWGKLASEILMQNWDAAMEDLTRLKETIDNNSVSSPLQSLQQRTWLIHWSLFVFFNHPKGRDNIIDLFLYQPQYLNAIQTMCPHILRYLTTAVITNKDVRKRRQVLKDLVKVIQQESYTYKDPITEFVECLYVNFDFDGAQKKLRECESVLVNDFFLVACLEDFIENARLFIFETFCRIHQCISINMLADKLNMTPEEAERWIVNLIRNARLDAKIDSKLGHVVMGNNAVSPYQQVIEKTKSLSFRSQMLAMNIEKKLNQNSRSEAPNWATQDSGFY
# “And” between values parts separate entries of the source, which are not always exact repeats. Equal entries are not always repeated. This is one part of the list. For some of these results: Construct or isoform of the protein are uncertain.
# Columns and labels:
# Assay in all cases: protein microarray (ProtoArray v5.0), streptavidin-Alexa Fluor 647
# Settings in all cases: 3'-biotin; 20 mM Tris (pH 7.5), 5 mM MgCl2, 100 mM KCl, 0.1% Tween-20, A/T-rich and random oligonucleotide blockers; temperature not stated; high values mean tight binding
# [1] = test system: ECE2 (human)
# [2] = test system: ECM1 (human)
# [3] = test system: EFCBP1 (human)
# [4] = test system: EFS (human)
# [5] = test system: EIF2B2 (human)
# [6] = target: EIF3S4 (UniProt O75821)
# [7] = target: EIF3S6 (UniProt P60228)
# [8] = test system: ELA3A (human)
# [9] = test system: EMILIN1 (human)
# [10] = test system: EMP3 (human)
sequence,measurement,setting,value
GGGGACAGGGGTATGGGGAGGGG [G4-3 biotinylated (CtG)],binding signal,[1],-0.334 z-score
same,binding signal,[2],-0.319 z-score
same,binding signal,[3],-0.305 z-score
same,binding signal,[4],-0.33 z-score
same,binding signal,[5],-0.343 z-score
same,binding signal,[6],3.15 z-score
same,binding signal,[7],-0.34 z-score
same,binding signal,[8],-0.318 z-score and -0.316 z-score
same,binding signal,[9],-0.33 z-score
same,binding signal,[10],-0.316 z-score

# A different layout for part of the listing above.
sequence | measurement | setting | value
GGGGACAGGGGTATGGGGAGGGG [G4-3 biotinylated (CtG)] | binding signal | [1] | -0.334 z-score
same | binding signal | [2] | -0.319 z-score
